PMC8541776
No constants are given. Whether binding was seen depends on the method and setting. For part of these data: In cells and extracts the contact can be indirect. Some binding calls cover weakened binding; strength is not graded here. Where a sequence is shown, tags or fusion partners need not be part of it. Blank lines part the entries; values can stand above or below the binder they belong to.

Assays:
[1] = target: T1, OSH1 (class I KNOX protein) fused to the GAL4 binding domain (rice (Oryza sativa)) (UniProt P46609); assay: two-hybrid; GAL4 system in S. cerevisiae AH109; KNOX class 1 proteins (and truncated OSH1) on pGBKT7 (BD), SLR1 (full length and truncated) on pGADT7 (AD); selection on SD/-Trp/-Leu/-His/-Ade
T1 sequence: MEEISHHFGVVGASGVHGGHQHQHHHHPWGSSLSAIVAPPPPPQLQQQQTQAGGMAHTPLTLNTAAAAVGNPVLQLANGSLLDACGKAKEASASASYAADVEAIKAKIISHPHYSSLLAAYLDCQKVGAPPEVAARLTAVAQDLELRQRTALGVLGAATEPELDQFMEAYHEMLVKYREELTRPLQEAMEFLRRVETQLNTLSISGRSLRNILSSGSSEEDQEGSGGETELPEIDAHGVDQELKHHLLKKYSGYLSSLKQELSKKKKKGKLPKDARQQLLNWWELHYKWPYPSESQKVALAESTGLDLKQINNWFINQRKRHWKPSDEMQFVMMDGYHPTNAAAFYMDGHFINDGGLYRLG

[2] = target: T2, OSH6 (class I KNOX protein) fused to the GAL4 binding domain (rice (Oryza sativa)) (UniProt Q9FP29); assay: as above
T2 sequence: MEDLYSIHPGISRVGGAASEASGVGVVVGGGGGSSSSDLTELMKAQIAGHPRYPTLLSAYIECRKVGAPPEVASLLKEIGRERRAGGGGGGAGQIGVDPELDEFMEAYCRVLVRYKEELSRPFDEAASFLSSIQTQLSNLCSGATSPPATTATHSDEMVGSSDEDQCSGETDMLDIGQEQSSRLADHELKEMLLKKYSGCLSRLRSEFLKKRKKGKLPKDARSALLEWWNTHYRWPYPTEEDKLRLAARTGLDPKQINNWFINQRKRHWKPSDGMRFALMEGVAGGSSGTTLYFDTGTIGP

[3] = target: T3, OSH15 (class I KNOX protein) fused to the GAL4 binding domain (rice (Oryza sativa)) (UniProt O80416); assay: as above
T3 sequence: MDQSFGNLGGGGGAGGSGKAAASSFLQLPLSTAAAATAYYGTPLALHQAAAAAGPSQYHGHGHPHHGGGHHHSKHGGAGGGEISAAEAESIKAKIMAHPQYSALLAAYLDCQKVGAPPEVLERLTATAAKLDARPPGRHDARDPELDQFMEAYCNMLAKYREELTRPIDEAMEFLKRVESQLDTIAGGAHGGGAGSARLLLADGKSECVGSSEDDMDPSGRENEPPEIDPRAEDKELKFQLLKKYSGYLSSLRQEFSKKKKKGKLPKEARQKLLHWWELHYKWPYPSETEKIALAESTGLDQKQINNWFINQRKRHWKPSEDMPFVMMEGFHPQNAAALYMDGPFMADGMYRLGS

[4] = target: T4, OSH71 (class I KNOX protein) fused to the GAL4 binding domain (rice (Oryza sativa)) (UniProt Q7GDL5); assay: as above
T4 sequence: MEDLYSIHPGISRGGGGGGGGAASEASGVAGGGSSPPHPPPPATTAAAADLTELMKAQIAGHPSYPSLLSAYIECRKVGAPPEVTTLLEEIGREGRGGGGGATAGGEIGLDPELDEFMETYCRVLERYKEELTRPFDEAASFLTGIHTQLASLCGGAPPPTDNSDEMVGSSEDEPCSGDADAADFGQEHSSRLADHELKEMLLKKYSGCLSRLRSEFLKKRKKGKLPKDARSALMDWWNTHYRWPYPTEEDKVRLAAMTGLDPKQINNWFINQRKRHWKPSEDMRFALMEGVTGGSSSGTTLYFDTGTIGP

[5] = target: T5, OSH1 fused to the N-terminal region of YFP (nYFP) (rice (Oryza sativa)) (UniProt P46609); assay: split reporter; BiFC: SLR1-cYFP and KNOX-nYFP co-infiltrated by Agrobacterium GV3101 into N. benthamiana leaves; YFP read by confocal microscopy after 48 h
T5 sequence: T1 sequence

[6] = target: T6, OSH15 fused to the N-terminal region of YFP (nYFP) (rice (Oryza sativa)) (UniProt O80416); assay: as above
T6 sequence: T3 sequence

[7] = target: T7, OSH6 fused to the N-terminal region of YFP (nYFP) (rice (Oryza sativa)) (UniProt Q9FP29); assay: as above
T7 sequence: T2 sequence

[8] = target: T8, OSH71 fused to the N-terminal region of YFP (nYFP) (rice (Oryza sativa)) (UniProt Q7GDL5); assay: as above
T8 sequence: T4 sequence

[9] = target: T9, OSH71 fused to the N-terminal luciferase domain (nLuc) (rice (Oryza sativa), Nipponbare) (UniProt Q7GDL5); assay: split reporter; split-luciferase: KNOX class 1 proteins with nLuc, SLR1 with cLuc, in tobacco leaves by Agrobacterium; CCD imaging after 36 h in the dark
T9 sequence: T4 sequence

[10] = target: T10, OSH6 fused to the N-terminal luciferase domain (nLuc) (rice (Oryza sativa), Nipponbare) (UniProt Q9FP29); assay: as above
T10 sequence: T2 sequence

[11] = target: T11, OSH15 fused to the N-terminal luciferase domain (nLuc) (rice (Oryza sativa), Nipponbare) (UniProt O80416); assay: as above
T11 sequence: T3 sequence

[12] = target: T12, OSH1 fused to the N-terminal luciferase domain (nLuc) (rice (Oryza sativa), Nipponbare) (UniProt P46609); assay: as above
T12 sequence: T1 sequence

binding [1]: binds
binding [2]: binds
binding [3]: binds
binding [4]: binds
B1: SLR1 (SLENDER RICE 1, DELLA protein) fused to the GAL4 activation domain (protein, UniProt Q7G7J6 1-625)
chain: MKREYQEAGGSSGGGSSADMGSCKDKVMAGAAGEEEDVDELLAALGYKVRSSDMADVAQKLEQLEMAMGMGGVSAPGAADDGFVSHLATDTVHYNPSDLSSWVESMLSELNAPLPPIPPAPPAARHASTSSTVTGGGGSGFFELPAAADSSSSTYALRPISLPVVATADPSAADSARDTKRMRTGGGSTSSSSSSSSSLGGGASRGSVVEAAPPATQGAAAANAPAVPVVVVDTQEAGIRLVHALLACAEAVQQENFAAAEALVKQIPTLAASQGGAMRKVAAYFGEALARRVYRFRPADSTLLDAAFADLLHAHFYESCPYLKFAHFTANQAILEAFAGCHRVHVVDFGIKQGMQWPALLQALALRPGGPPSFRLTGVGPPQPDETDALQQVGWKLAQFAHTIRVDFQYRGLVAATLADLEPFMLQPEGEADANEEPEVIAVNSVFELHRLLAQPGALEKVLGTVHAVRPRIVTVVEQEANHNSGSFLDRFTESLHYYSTMFDSLEGGSSGQAELSPPAAGGGGGTDQVMSEVYLGRQICNVVACEGAERTERHETLGQWRNRLGRAGFEPVHLGSNAYKQASTLLALFAGGDGYRVEEKEGCLTLGWHTRPLIATSAWRVAAA

binding [5]: binds
binding [6]: binds
binding [7]: binds
binding [8]: binds
B2: SLR1 fused to the C-terminal region of YFP (SLR1-cYFP) (protein, UniProt Q7G7J6 1-625)
chain: B1 chain

binding [9]: binds
binding [10]: binds
binding [11]: binds
binding [12]: binds
B3: SLR1 fused to the C-terminal luciferase domain (cLuc) (protein, UniProt Q7G7J6 1-625)
chain: B1 chain
